From the supplement of paper PMC10849652
The list shows a part of the results.

Sequences of proteins named here, by UniProt entry; tags and fusion partners are left off. A change or cut given only in a name is not applied to a line headed by its entry.
UniProt O43264: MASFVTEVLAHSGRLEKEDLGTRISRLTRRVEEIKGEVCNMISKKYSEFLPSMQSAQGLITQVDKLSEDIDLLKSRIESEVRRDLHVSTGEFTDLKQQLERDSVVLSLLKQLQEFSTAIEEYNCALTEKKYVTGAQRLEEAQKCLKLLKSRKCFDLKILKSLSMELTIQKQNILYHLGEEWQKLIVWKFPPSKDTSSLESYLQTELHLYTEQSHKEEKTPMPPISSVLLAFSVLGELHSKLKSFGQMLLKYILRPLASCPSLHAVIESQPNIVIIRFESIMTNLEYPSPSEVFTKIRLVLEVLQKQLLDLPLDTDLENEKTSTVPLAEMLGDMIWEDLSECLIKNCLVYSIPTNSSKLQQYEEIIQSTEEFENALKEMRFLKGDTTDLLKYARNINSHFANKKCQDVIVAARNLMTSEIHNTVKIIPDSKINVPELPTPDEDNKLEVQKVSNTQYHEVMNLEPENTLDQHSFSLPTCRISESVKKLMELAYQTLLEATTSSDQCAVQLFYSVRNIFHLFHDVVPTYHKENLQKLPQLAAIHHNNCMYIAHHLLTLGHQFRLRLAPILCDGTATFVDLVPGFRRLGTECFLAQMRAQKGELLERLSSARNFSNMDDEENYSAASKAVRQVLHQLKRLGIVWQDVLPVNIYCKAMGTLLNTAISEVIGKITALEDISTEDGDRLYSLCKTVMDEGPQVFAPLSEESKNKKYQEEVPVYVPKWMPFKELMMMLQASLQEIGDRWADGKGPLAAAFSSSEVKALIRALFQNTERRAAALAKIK
UniProt Q96ME7: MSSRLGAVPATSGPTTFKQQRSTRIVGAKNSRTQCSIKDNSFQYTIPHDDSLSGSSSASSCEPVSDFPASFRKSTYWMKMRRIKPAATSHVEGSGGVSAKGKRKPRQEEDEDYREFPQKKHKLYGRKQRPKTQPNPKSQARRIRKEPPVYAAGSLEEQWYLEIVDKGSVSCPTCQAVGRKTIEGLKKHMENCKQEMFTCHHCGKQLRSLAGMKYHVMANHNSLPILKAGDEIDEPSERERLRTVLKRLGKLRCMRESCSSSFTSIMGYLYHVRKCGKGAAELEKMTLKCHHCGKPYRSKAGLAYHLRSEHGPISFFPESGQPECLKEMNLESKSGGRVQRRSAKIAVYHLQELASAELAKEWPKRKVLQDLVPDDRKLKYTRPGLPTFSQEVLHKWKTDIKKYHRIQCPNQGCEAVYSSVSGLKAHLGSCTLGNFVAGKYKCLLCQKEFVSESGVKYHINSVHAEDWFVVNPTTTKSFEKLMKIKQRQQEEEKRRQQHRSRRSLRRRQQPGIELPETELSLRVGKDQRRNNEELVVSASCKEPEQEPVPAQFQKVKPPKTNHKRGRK
UniProt Q9UKY1: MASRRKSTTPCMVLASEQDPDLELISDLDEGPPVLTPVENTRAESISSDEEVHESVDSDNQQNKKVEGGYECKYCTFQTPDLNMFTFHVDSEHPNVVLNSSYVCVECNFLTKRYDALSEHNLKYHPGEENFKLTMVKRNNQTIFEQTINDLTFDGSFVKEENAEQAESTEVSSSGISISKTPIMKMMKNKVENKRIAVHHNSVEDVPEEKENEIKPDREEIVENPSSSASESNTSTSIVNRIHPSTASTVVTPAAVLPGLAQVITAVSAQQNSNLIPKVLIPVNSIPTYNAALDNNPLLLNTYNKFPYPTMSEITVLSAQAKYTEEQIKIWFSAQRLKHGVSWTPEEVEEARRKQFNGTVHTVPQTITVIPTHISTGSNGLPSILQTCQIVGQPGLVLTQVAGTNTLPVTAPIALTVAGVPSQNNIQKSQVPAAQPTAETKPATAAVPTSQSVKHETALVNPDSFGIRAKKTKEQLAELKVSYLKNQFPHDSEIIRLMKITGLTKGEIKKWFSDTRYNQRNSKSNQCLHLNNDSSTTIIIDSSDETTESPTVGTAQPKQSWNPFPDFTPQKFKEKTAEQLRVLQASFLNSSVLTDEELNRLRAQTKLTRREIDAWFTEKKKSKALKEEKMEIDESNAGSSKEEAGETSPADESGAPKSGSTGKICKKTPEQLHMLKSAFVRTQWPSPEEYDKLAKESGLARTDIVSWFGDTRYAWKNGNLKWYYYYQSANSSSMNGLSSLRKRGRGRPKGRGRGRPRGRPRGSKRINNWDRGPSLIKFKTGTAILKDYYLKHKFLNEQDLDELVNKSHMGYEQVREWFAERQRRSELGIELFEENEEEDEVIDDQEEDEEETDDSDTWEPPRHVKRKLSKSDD
UniProt P17029: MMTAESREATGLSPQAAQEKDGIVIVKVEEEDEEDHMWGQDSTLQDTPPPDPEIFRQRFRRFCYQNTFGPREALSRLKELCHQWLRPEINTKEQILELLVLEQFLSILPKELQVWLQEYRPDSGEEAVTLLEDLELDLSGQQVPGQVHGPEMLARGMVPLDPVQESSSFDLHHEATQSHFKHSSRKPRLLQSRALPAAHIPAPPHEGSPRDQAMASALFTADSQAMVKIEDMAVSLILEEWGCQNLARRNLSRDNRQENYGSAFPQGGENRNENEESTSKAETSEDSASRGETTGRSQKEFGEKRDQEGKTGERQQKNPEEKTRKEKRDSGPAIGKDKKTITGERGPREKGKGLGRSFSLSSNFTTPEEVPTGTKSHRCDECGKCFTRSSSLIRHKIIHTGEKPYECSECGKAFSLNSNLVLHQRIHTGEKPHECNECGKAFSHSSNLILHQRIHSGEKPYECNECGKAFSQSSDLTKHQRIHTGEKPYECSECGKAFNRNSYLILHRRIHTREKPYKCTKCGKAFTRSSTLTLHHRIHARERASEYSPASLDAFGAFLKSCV
UniProt Q14202: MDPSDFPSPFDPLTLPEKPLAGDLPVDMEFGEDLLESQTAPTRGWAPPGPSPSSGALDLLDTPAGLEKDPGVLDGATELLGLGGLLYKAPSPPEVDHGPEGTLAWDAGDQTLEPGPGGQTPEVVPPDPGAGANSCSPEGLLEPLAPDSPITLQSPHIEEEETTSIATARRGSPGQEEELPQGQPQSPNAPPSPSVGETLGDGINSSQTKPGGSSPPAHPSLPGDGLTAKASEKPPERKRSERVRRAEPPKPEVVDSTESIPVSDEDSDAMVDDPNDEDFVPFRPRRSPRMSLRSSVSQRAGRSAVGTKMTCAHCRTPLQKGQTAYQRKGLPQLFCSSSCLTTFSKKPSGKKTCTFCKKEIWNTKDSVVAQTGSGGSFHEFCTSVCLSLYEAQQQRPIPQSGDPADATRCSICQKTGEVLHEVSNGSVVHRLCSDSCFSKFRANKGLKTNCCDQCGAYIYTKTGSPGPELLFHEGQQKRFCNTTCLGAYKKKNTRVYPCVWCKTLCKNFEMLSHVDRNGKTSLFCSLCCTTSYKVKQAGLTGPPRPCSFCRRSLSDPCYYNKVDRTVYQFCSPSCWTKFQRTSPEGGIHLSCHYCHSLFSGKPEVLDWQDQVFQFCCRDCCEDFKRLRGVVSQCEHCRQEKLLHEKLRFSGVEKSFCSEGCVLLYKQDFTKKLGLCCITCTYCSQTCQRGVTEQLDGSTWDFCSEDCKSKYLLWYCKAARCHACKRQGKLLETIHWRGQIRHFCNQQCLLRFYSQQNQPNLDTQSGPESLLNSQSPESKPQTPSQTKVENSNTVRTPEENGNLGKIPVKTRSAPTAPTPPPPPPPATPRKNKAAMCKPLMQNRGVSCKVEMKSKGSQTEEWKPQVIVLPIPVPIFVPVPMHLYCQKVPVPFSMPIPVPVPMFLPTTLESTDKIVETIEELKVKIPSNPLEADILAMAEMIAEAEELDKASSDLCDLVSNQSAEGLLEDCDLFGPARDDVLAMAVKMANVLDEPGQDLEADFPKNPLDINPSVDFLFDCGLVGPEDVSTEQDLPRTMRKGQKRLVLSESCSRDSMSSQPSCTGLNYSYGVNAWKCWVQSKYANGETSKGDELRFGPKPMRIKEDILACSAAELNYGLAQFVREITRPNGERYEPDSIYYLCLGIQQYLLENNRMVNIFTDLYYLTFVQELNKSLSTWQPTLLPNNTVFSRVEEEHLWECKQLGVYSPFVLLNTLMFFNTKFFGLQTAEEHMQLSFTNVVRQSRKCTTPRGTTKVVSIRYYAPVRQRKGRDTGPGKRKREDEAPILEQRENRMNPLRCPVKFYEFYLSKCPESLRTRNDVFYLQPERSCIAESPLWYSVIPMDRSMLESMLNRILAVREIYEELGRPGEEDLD
UniProt Q6DD87: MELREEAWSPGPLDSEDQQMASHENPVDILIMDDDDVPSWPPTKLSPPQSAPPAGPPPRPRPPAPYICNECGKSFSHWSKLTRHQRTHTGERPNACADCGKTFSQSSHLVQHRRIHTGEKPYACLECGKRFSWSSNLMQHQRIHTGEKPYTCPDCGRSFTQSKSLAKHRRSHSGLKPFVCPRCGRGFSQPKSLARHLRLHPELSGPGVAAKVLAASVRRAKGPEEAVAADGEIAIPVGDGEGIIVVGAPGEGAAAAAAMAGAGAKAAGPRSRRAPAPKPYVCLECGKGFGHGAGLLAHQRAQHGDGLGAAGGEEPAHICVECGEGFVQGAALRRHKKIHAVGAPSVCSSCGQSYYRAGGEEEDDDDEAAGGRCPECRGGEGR
UniProt Q9C0D3: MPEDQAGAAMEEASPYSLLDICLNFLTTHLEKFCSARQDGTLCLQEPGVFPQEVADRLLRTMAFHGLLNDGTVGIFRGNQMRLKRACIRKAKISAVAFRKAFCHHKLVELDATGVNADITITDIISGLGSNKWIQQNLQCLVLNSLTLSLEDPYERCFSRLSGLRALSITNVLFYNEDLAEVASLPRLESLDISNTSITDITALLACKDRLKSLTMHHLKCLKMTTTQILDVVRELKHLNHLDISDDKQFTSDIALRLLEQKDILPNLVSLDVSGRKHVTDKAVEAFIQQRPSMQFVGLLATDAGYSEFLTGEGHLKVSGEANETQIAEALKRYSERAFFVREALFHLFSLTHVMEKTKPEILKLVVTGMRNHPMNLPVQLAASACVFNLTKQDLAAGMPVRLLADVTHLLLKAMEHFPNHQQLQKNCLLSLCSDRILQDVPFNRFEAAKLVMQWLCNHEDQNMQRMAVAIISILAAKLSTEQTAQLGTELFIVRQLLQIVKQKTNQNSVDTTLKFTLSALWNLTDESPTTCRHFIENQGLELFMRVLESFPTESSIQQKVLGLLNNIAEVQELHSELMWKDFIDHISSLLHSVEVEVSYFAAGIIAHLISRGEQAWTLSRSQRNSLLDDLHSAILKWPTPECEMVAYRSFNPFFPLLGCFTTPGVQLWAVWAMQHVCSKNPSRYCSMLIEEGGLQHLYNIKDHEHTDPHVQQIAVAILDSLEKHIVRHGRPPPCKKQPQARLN
UniProt O75844: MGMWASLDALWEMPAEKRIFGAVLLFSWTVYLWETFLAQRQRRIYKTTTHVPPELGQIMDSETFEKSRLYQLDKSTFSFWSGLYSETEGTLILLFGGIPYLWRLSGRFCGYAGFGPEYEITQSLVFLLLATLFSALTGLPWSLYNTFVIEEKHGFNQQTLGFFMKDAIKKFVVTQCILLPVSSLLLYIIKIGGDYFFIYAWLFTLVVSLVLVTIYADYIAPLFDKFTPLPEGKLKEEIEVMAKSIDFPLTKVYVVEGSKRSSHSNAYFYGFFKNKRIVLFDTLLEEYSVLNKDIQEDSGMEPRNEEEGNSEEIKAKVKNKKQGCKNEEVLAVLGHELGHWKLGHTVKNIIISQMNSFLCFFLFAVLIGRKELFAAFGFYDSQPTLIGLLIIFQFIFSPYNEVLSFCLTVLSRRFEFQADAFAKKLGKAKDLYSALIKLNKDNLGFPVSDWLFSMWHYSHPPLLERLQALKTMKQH

How the values were obtained:
Assay in all cases: log2 fold change, soluble protein after heating vs DMSO (PISA); higher = thermal stabilisation; K562 lysate, 10 uM; active = over 0.2 and 3.5 SD of the protein, either way, in both replicates (recomputed)
alvocidib = compound: CN1CC[C@H](c2c(O)cc(O)c3c(=O)cc(-c4ccccc4Cl)oc23)[C@H](O)C1 [alvocidib]
Summary of the method: (§1)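 Following dounce homogenisation of K562 pellets in PBS pH 7.4 with 1 mM MgCl2, crude extract at 1 mg/mL protein was incubated for 30 min with 10 μM compound. Aliquots were then heated for 3 min over 48°C-58°C and pooled, NP-40 was added to 0.5% at 4°C, and soluble protein was recovered as the supernatant at 21,000xg for 90 min. Channel-sum-equalised TMTpro 16plex LC-MS/MS quantified this protein. Each value, from duplicates, is a log-two fold change in thermal stability relative to solvent controls.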

Tubastatin A = compound: CN1CCc2c(c3ccccc3n2Cc2ccc(C(=O)NO)cc2)C1 [Tubastatin A]
Summary of the method: as §1

[1] = compound: CNC(=O)C1=CC=CC=C1NC2=NC(=NC=C2Cl)NC3=C(C=C(C=C3)N4CCOCC4)OC
Summary of the method: as §1

defactinib = compound: CNC(=O)c1ccc(Nc2ncc(C(F)(F)F)c(NCc3nccnc3N(C)S(C)(=O)=O)n2)cc1 [defactinib]
Summary of the method: as §1

[2] = compound: CNc1nc(-c2ccc3c(N)n[nH]c3c2)cc(N2C[C@@H](C(=O)NC3CCCCC3)CC[C@H]2C)n1
Summary of the method: as §1

encorafenib = compound: COC(=O)N[C@@H](C)CNc1nccc(-c2cn(C(C)C)nc2-c2cc(Cl)cc(NS(C)(=O)=O)c2F)n1 [encorafenib]
Summary of the method: as §1

[3] = compound: COC(=O)[C@H](CCSC)NC(=O)C1=C(C=C(C=C1)NC[C@H](CS)N)C2=CC=CC=C2
Summary of the method: as §1

alisertib = compound: COc1cc(Nc2ncc3c(n2)-c2ccc(Cl)cc2C(c2c(F)cccc2OC)=NC3)ccc1C(=O)O [alisertib]
Summary of the method: as §1

[4] = compound: COc1cc2nc(-c3cc(F)ccc3O)nc(N[C@@H]3CNC[C@H]3C(C)(C)O)c2cc1OC
Summary of the method: as §1

gefitinib = compound: COc1cc2ncnc(Nc3ccc(F)c(Cl)c3)c2cc1OCCCN1CCOCC1 [gefitinib]
Summary of the method: as §1

lapatinib = compound: CS(=O)(=O)CCNCc1ccc(-c2ccc3ncnc(Nc4ccc(OCc5cccc(F)c5)c(Cl)c4)c3c2)o1 [lapatinib]
Summary of the method: as §1

pictilisib = compound: CS(=O)(=O)N1CCN(Cc2cc3nc(-c4cccc5[nH]ncc45)nc(N4CCOCC4)c3s2)CC1 [pictilisib]
Summary of the method: as §1

crizotinib = compound: C[C@@H](Oc1cc(-c2cnn(C3CCNCC3)c2)cnc1N)c1c(Cl)ccc(F)c1Cl [crizotinib]
Summary of the method: as §1

[5] = compound: C[C@H](C1=CC=C(C=C1)C(=O)NC2=C3C=CNC3=NC=C2)N
Summary of the method: as §1

duvelisib = compound: C[C@H](Nc1ncnc2nc[nH]c12)c1cc2cccc(Cl)c2c(=O)n1-c1ccccc1 [duvelisib]
Summary of the method: as §1

gandotinib = compound: Cc1cc(Nc2cc(CN3CCOCC3)c3nc(C)c(Cc4ccc(Cl)cc4F)n3n2)n[nH]1 [gandotinib]
Summary of the method: as §1

tozasertib = compound: Cc1cc(Nc2cc(N3CCN(C)CC3)nc(Sc3ccc(NC(=O)C4CC4)cc3)n2)n[nH]1 [tozasertib]
Summary of the method: as §1

doramapimod = compound: Cc1ccc(-n2nc(C(C)(C)C)cc2NC(=O)Nc2ccc(OCCN3CCOCC3)c3ccccc23)cc1 [doramapimod]
Summary of the method: as §1

bafetinib = compound: Cc1ccc(NC(=O)c2ccc(CN3CC[C@H](N(C)C)C3)c(C(F)(F)F)c2)cc1Nc1nccc(-c2cncnc2)n1 [bafetinib]
Summary of the method: as §1

[6] = compound: Cc1cccc(CC(=O)N2CCc3c2ccc(-c2cn(C)c4ncnc(N)c24)c3F)n1
Summary of the method: as §1

Measured: log2 fold change

ZW10 (UniProt O43264)
inactive: alvocidib -0.003 | Tubastatin A -0.032 | [1] 0.003 | defactinib 0.035 | [2] -0.015 | encorafenib 0.047 | [3] 0.017 | alisertib -0.001 | [4] 0.017 | gefitinib -0.019 | lapatinib -0.048 | pictilisib 0.003 | crizotinib -0.089 | [5] -0.034 | duvelisib 0.011 | gandotinib -0.067 | tozasertib 0.008 | doramapimod -0.013 | bafetinib -0.038 | [6] 0.03

ZNF512 (UniProt Q96ME7)
inactive: alvocidib 0.042 | Tubastatin A -0.142 | [1] -0.005 | defactinib 0.012 | [2] 0.03 | encorafenib 0.046 | [3] 0.051 | alisertib -0.009 | [4] 0.017 | gefitinib -0.015 | lapatinib -0.05 | pictilisib 0.037 | crizotinib -0.051 | [5] 0.039 | duvelisib -0.039 | gandotinib 0.066 | tozasertib -0.01 | doramapimod -0.015 | bafetinib -0.025 | [6] 0

ZHX1 (UniProt Q9UKY1)
active: [5] -0.57 | gandotinib 0.475 | [6] 0.431
inactive: alvocidib -0.231 | Tubastatin A -0.194 | [1] 0 | defactinib 0.034 | [2] 0.251 | encorafenib 0.041 | [3] 0.044 | alisertib 0.013 | [4] 0.042 | gefitinib 0.012 | lapatinib 0.014 | pictilisib 0.003 | crizotinib 0.018 | duvelisib 0.038 | tozasertib -0.09 | doramapimod -0.013 | bafetinib -0.08

ZKSCAN1 (UniProt P17029)
inactive: alvocidib 0.022 | Tubastatin A -0.065 | [1] 0.011 | defactinib 0.014 | [2] 0.021 | encorafenib 0.113 | [3] -0.044 | alisertib 0.107 | [4] -0.011 | gefitinib -0.235 | lapatinib -0.016 | pictilisib -0.009 | crizotinib -0.014 | [5] 0.035 | duvelisib -0.074 | gandotinib -0.022 | tozasertib 0.051 | doramapimod 0.012 | bafetinib -0.054 | [6] -0.004

ZMYM3 (UniProt Q14202)
inactive: alvocidib 0.019 | Tubastatin A -0.06 | [1] 0.002 | defactinib 0.029 | [2] -0.024 | encorafenib -0.027 | [3] -0.009 | alisertib -0.148 | [4] 0.016 | gefitinib 0.077 | lapatinib 0.041 | pictilisib -0.006 | crizotinib -0.072 | [5] -0.02 | duvelisib 0.02 | gandotinib 0.017 | tozasertib 0.015 | doramapimod 0.006 | bafetinib 0.028 | [6] 0.006

ZNF787 (UniProt Q6DD87)
inactive: alvocidib -0.037 | Tubastatin A 0.086 | [1] -0.038 | defactinib -0.058 | [2] 0.128 | encorafenib 0.076 | [3] -0.013 | alisertib -0.038 | [4] 0.014 | gefitinib -0.119 | lapatinib -0.069 | pictilisib 0.004 | crizotinib 0.024 | [5] 0.014 | duvelisib -0.02 | gandotinib 0.146 | tozasertib 0.023 | doramapimod -0.058 | bafetinib 0.031 | [6] -0.021

ZYG11B (UniProt Q9C0D3)
inactive: alvocidib -0.008 | Tubastatin A 0.025 | [1] 0.023 | defactinib 0.016 | [2] -0.009 | encorafenib 0.001 | [3] -0.037 | alisertib 0.011 | [4] 0.017 | gefitinib 0.019 | lapatinib 0.026 | pictilisib -0.021 | crizotinib -0.087 | [5] -0.039 | duvelisib 0.015 | gandotinib 0.015 | tozasertib -0.009 | doramapimod -0.025 | bafetinib -0.021 | [6] 0.058

Quoted from the results shown (two entries):
ZKSCAN1 (UniProt P17029)
inactive: alvocidib 0.022 | Tubastatin A -0.065 | [1] 0.011 | defactinib 0.014 | [2] 0.021 | encorafenib 0.113 | [3] -0.044 | alisertib 0.107 | [4] -0.011 | gefitinib -0.235 | lapatinib -0.016 | pictilisib -0.009 | crizotinib -0.014 | [5] 0.035 | duvelisib -0.074 | gandotinib -0.022 | tozasertib 0.051 | doramapimod 0.012 | bafetinib -0.054 | [6] -0.004

ZMYM3 (UniProt Q14202)
inactive: alvocidib 0.019 | Tubastatin A -0.06 | [1] 0.002 | defactinib 0.029 | [2] -0.024 | encorafenib -0.027 | [3] -0.009 | alisertib -0.148 | [4] 0.016 | gefitinib 0.077 | lapatinib 0.041 | pictilisib -0.006 | crizotinib -0.072 | [5] -0.02 | duvelisib 0.02 | gandotinib 0.017 | tozasertib 0.015 | doramapimod 0.006 | bafetinib 0.028 | [6] 0.006

(cont.)

ZMPSTE24 (UniProt O75844)
inactive: alvocidib -0.056 | Tubastatin A 0.034 | [1] 0.038 | defactinib 0 | [2] 0.022 | encorafenib 0.01 | [3] -0.031 | alisertib -0.022 | [4] 0.012 | gefitinib 0.007 | lapatinib 0.023 | pictilisib 0.004 | crizotinib -0.045 | [5] -0.239 | duvelisib 0.028 | gandotinib 0.199 | tozasertib 0.004 | doramapimod 0.01 | bafetinib -0.026 | [6] 0.113
